We go through one compound from the NIST ThermoML archive (doi:10.1016/j.fluid.2012.05.007).

Molecules are shown by their SMILES. ± gives the expanded uncertainty stated by the source.

The conditions of this data set: 288.15 K; 101 kPa; Liquid; Pycnometric method.

One may read the mass density as mass per unit of volume.

`O` [water]: the mass density came to 999 ± 1 kg/m3.
